The shares of active, inactive and inconclusive entries below differ from those in the screen. Potencies of inconclusive entries are doubtful fits and often do not repeat. Activity calls are given as the source filed them. Calls follow the shape of the dose curve; as a rule, active = well fitted inhibition curve with a large enough effect; inconclusive = small, poorly fitted or top-dose-only effect; inactive = no such curve, though single readings can be large or run the other way. *1 amine or outer side, *2 acyl side, *3 side chain or, on linkers, in order; H or OH if unused. Where a SMILES comes first, the peptide text is derived from it. Bridges are numbered along the chain shown (N, C = ends). Roman numbers before positions name the chains, in order. [ ]: non-standard residue; d: D form. ξ: configuration not given here. Actinocin(9to1) = Cc1c2oc3c(C)ccc(C(=O)[*:1])c3nc-2c(C(=O)[*:2])c(N)c1=O; ξNMeV = CNC(C(=O)O)C(C)C; ξV = CC(C)C(N)C(=O)O; Sar = CNCC(=O)O
tested on: zebrafish ABCB5 (Abcb5) multidrug transporter; test: qHTS for characterization and localization of zebrafish homologs of the human ABCB1 multidrug transporter: ABCB5 transfected cells; conditions: CellTiter-Glo luminescence viability, 72 h; series mostly up to 46.1 µM
Text: The zebrafish has emerged as a potential model to study the blood-brain barrier (BBB) given its similarities with mammalian systems. However, little information has been available with regard to homologous ATP-binding cassette transporters expressed at the zebrafish BBB. Two transporters that are highly expressed at the human BBB are P-glycoprotein (P-gp, encoded by the ABCB1 gene) and ABCG2 (encoded by the ABCG2 gene). In this study, we focus on characterization of P-gp homologs in the zebrafish, which has two genes that are homologous to human ABCB1 - abcb4 and abcb5. We generated stably-transfected cell lines to determine their substrate specificities. […] Zebrafish abcb4 also colocalized with claudin 5 expression in brain endothelial cells.
A high-throughput screen was performed as previously described on empty vector transfected cells, P-gp-overexpressing MDR-19 cells and cells transfected with full-length zebrafish abcb4 (ZF Abcb4) or abcb5 (ZF Abcb5). Briefly, cells were plated into 1536-well plates at a density of 500 cells/well in 5 uL media. P-gp substrate compounds (approximately 90) selected from our previous study were then added at varying concentrations using a 1536-head pin tool (Kalypsis, San Diego, CA) and plates were incubated at 37C in 5% CO2 for 72 h. CellTiter-Glo reagent (Promega) was dispensed into the wells, incubated for 5 min and luminescence was read on a ViewLux instrument (Perkin-Elmer).
Cytotoxic compounds were defined as those that yielded a curve class of -1.1, -1.2, -2.1, -2.2, -2.3, or -2.4, a maximum response of >50% and an AC50 of < 10 uM. All compounds from screening analysis were tested in Vector (empty vector control), MDR-19 (P-gp overexpressing), zebrafish abcb4 (ZF Abcb4) and abcb5 (ZF Abcb5) expression cell lines.
1. Tobie D Lee, Olivia W Lee, Kyle R Brimacombe, Lu Chen, Rajarshi Guha, Sabrina Lusvarghi, Bethilehem G Tebase, Carleen Klumpp-Thomas, Robert W Robey, Suresh V Ambudkar, Min Shen, Michael M Gottesman, Matthew D Hall. A High-Throughput Screen of a Library of Therapeutics Identifies Cytotoxic Substrates of P-glycoprotein. Mol Pharmacol. 2019, Nov;96(5):629-640.

Compound	Potency	activity, negative = inhibition
CC(C)C[C@H](NC(=O)[C@H](CCc1ccccc1)NC(=O)CN1CCOCC1)C(=O)N[C@@H](Cc1ccccc1)C(=O)N[C@@H](CC(C)C)C(=O)[C@@]1(C)CO1	active: 0.166 µM	
CN(c1ncccc1CNc1nc(Nc2ccc3c(c2)CC(=O)N3)ncc1C(F)(F)F)S(C)(=O)=O	inconclusive: 13.2 µM [inhibitor, partial curve]	
C[C@@]12O[C@@H](C[C@]1(O)CO)n1c3ccccc3c3c4c(c5c6ccccc6n2c5c31)CNC4=O	active: 5.26 µM	
C[C@]12CCC(=O)C=C1[C@@H]1C[C@@H]1[C@H]1[C@@H]3[C@@H]4C[C@@H]4[C@@]4(CCC(=O)O4)[C@@]3(C)CC[C@@H]12	inconclusive: 5.26 µM [inhibitor, partial curve]	
CC(C)(C)c1cnc(CSc2cnc(NC(=O)C3CCNCC3)s2)o1	inconclusive: 4.29 µM [inhibitor, full curve]	
CN(C)C1CCN(C(=O)c2ccc(NC(=O)Nc3nc(N4CCOCC4)nc(N4CCOCC4)n3)cc2)CC1	active: 4.69 µM	
C[C@@H]1O[C@@H](O[C@H]2[C@H](O)[C@@H](O)[C@H](O[C@H]3[C@H](O[C@H]4CC[C@@]5(C)C(=CC[C@@H]6C5CC[C@]5(C)[C@@H]7[C@H](C[C@@H]65)O[C@]5(CC[C@@](C)(CO[C@@H]6O[C@H](CO)[C@@H](O)[C@H](O)[C@H]6O)O5)[C@H]7C)C4)O[C@H](CO)[C@@H](O)[C@@H]3O)O[C@@H]2CO)[C@H](O)[C@H](O)[C@H]1O (stereo not given in full)	inconclusive: 0.888 µM [inhibitor, full curve]	
CC(=O)OC12COC1CC(O)C1(C)C(=O)C(O)C3=C(C)C(OC(=O)C(O)C(NC(=O)OC(C)(C)C)c4ccccc4)CC(O)(C(OC(=O)c4ccccc4)C21)C3(C)C (stereo not given)	inconclusive: 0.187 µM [inhibitor, full curve]	
COc1cc(NCc2ccc3nc(N)nc(N)c3c2C)cc(OC)c1OC	inconclusive: 0.105 µM [inhibitor, full curve]	
NC(=O)Nc1cc(-c2ccc(CN3CCOCC3)c(F)c2)sc1C(=O)N[C@H]1CCCNC1	active: 1.48 µM	
COc1cc(N2CCC(O)CC2)ccc1Nc1nc(Nc2ccccc2S(=O)(=O)C(C)C)c2[nH]cnc2n1	inactive	
CCc1c(O)cc(O)c(C(=O)c2ccc(OCCN3CCOCC3)c(OC)c2)c1CC(=O)N(CCOC)CCOC	inconclusive: 18.7 µM [inhibitor, partial curve]	
COc1cc([C@@H]2c3cc4c(cc3[C@H](O)[C@H]3COC(=O)[C@H]23)OCO4)cc(OC)c1OC	inconclusive: 0.118 µM [inhibitor, full curve]	
CC(C)CC(=O)Nc1n[nH]c2c1CN(C(=O)C1CCN(C)CC1)C2(C)C	inconclusive: 23.5 µM [inhibitor, single point]	
O=C(NC1CC1)c1cccc(-c2ccc3c(NC(=O)C4CC4)n[nH]c3c2)c1	inconclusive: 37.2 µM [inhibitor, partial curve, poor fit]	
CO[C@H]1/C=C/C=C/C=C/C[C@H](OC(=O)[C@@H](C)NC(=O)C2CCCCC2)[C@H](C)[C@@H](O)/C(C)=C/CCc2cc(O)cc(c2)NC(=O)C1	inconclusive: 6.21 µM [inhibitor, partial curve]	
COc1cc2c(NC3CCN(C(C)C)CC3)nc(N3CCCN(C)CC3)nc2cc1OCCOCCN(C)C	inactive	
CC(=O)O[C@H]1C(=O)[C@@]2(C)C([C@H](OC(=O)c3ccccc3)[C@]3(O)C[C@H](OC(=O)[C@H](O)[C@@H](NC(=O)c4ccccc4)c4ccccc4)C(C)=C1C3(C)C)[C@]1(OC(C)=O)CO[C@@H]1C[C@@H]2O (stereo not given in full)	inconclusive: 0.264 µM [inhibitor, full curve]	
Cn1cc(-c2[nH]c3cc(NC(=O)[C@H](N)C4CCCCC4)cc4c3c2C=NNC4=O)cn1	inconclusive: 1.87 µM [inhibitor, full curve]	
O=C(Nc1cn[nH]c1-c1nc2ccc(CN3CCOCC3)cc2[nH]1)NC1CC1	inconclusive: 20.9 µM [inhibitor, partial curve]	

Compound	Potency	activity, negative = inhibition
C#CCN(Cc1cc2c(=O)n(C)c(CN3CCN(C)CC3)nc2cc1Cl)c1ccc(C(=O)NCc2cccnc2)cc1	inactive	
Cc1cc(Nc2cc(N3CCN(C)CC3)nc(Sc3ccc(NC(=O)C4CC4)cc3)n2)n[nH]1	inconclusive: 18.7 µM [inhibitor, partial curve, poor fit]	
CCC(C)C(=O)OC1CC(O)C23C4OCC5(C(O)CC2C1(C)C(O)O4)C3C(=O)C(O)C1(C)C(O)(c2ccoc2)CC2OC251 (stereo not given)	inactive	
COC[C@H](NC(=O)c1cnc(C)s1)C(=O)N[C@@H](COC)C(=O)N[C@@H](Cc1ccccc1)C(=O)[C@@]1(C)CO1	active: 0.166 µM	
CCC1(O)CC2CN(CCc3c([nH]c4ccccc34)[C@@](C(=O)OC)(c3cc4c(cc3OC)N(C=O)[C@H]3[C@](O)(C(=O)OC)[C@H](OC(C)=O)[C@]5(CC)C=CCN6CC[C@]43[C@@H]65)C2)C1 (stereo not given in full)	inconclusive: 0.469 µM [inhibitor, full curve]	
O=C(NC1CCNCC1)c1[nH]ncc1NC(=O)c1c(Cl)cccc1Cl	inconclusive: 13.2 µM [inhibitor, partial curve]	
CCN(CC)Cc1ccc(C(=O)N(CCc2ccccc2OC)[C@@H]2CCNC2)cc1	inactive	
CCN(CCCO)CCCOc1ccc2c(Nc3cc(CC(=O)Nc4cccc(F)c4)[nH]n3)ncnc2c1	inactive	
CCN1CCN(Cc2ccc(NC(=O)Nc3ccc(Oc4cc(NC)ncn4)cc3)cc2C(F)(F)F)CC1	inconclusive: 29.6 µM [inhibitor, single point]	
CCS(=O)(=O)c1cccc(-c2cc(C(=O)NC3CCN(C)CC3)c(C)c3[nH]c4ncc(C)cc4c23)c1	inactive	
C[C@@H](Oc1cc(-n2cnc3ccc(CN4CCN(C)CC4)cc32)sc1C(N)=O)c1ccccc1C(F)(F)F	active: 4.18 µM	
CCC1=CC2CN(C1)Cc1c([nH]c3ccccc13)[C@@](C(=O)OC)(c1cc3c(cc1OC)N(C)[C@H]1[C@@](O)(C(=O)OC)[C@H](OC(C)=O)[C@]4(CC)C=CCN5CC[C@]31[C@@H]54)C2 (stereo not given in full)	inconclusive: 2.09 µM [inhibitor, full curve]	
CCC(C)n1ncn(-c2ccc(N3CCN(c4ccc(OCC5COC(Cn6cncn6)(c6ccc(Cl)cc6Cl)O5)cc4)CC3)cc2)c1=O (stereo not given)	inconclusive: 9.35 µM [inhibitor, full curve]	
Cc1c2oc3c(C)ccc(C(=O)N[C@@H]4C(=O)NC(C(C)C)C(=O)N5CCC[C@H]5C(=O)N(C)CC(=O)N(C)C(C(C)C)C(=O)O[C@@H]4C)c3nc-2c(C(=O)N[C@@H]2C(=O)NC(C(C)C)C(=O)N3CCC[C@H]3C(=O)N(C)CC(=O)N(C)C(C(C)C)C(=O)O[C@@H]2C)c(N)c1=O (stereo not given in full) (I: T[ξV]P[Sar][ξNMeV] / II: T[ξV]P[Sar][ξNMeV]; ester I:1-I:C, II:1-II:C; linker I:N-II:N via Actinocin(9to1))	inconclusive: 0.0372 µM [inhibitor, full curve]	
C=C1CO[C@@]2(O[C@H]3CC4C5CC=C6C[C@@H](O)C[C@@H](O[C@@H]7OC[C@H](O)[C@H](O[C@@H]8OC[C@@H](O)[C@H](O)[C@H]8O)[C@H]7O[C@@H]7O[C@@H](C)[C@H](OC(C)=O)[C@@H](OC(C)=O)[C@H]7OC(C)=O)[C@]6(C)C5CC[C@]4(C)[C@@H]3[C@@H]2C)[C@@H](O)[C@H]1OC1OC(C)C(O)C(O)C1O (stereo not given in full)		inactive: 3.83% [at 8.96 µM]
COc1cc2c(NC3CCN(C(C)C)CC3)nc(N3CCCN(C)CC3)nc2cc1OCCCN1CCCC1	inactive	
Cc1nc(Nc2n[nH]c3c2CN(C(=O)N[C@H](CN(C)C)c2ccccc2)C3(C)C)c2sccc2n1	inconclusive: 1.32 µM [inhibitor, full curve]	
CCc1cccc(CC)c1NC(=O)N1Cc2[nH]nc(NC(=O)c3ccc(N4CCN(C)CC4)cc3)c2C1	inactive	
C[C@@H]1O[C@@H](O[C@H]2[C@@H](OC(=O)[C@]34CCC(C)(C)CC3C3=CCC5[C@@]6(C)C[C@H](O)[C@H](O[C@@H]7O[C@H](CO)[C@@H](O)[C@H](O)[C@H]7O[C@@H]7OC[C@@H](O)[C@H](O)[C@H]7O)[C@@](C)(C(=O)O)C6CC[C@@]5(C)[C@]3(C)CC4)OC[C@H](O)[C@@H]2O)[C@H](O)[C@H](O)[C@H]1O[C@@H]1OC[C@@H](O)[C@H](O)[C@H]1O (stereo not given in full)		inactive: -6.88% [at 8.96 µM]
Cc1[nH]c2ccccc2c1CCNCc1ccc(/C=C/C(=O)NO)cc1	active: 0.59 µM	

Gathered by group: the compounds so far containing a CF3 group
Compound	Potency	activity, negative = inhibition
CN(c1ncccc1CNc1nc(Nc2ccc3c(c2)CC(=O)N3)ncc1C(F)(F)F)S(C)(=O)=O	inconclusive: 13.2 µM [inhibitor, partial curve]	
CCN1CCN(Cc2ccc(NC(=O)Nc3ccc(Oc4cc(NC)ncn4)cc3)cc2C(F)(F)F)CC1	inconclusive: 29.6 µM [inhibitor, single point]	
C[C@@H](Oc1cc(-n2cnc3ccc(CN4CCN(C)CC4)cc32)sc1C(N)=O)c1ccccc1C(F)(F)F	active: 4.18 µM	
